Results taken from article PMC9900698, “Phosphorylation Regulation of a Histone-like HU Protein from Deinococcus radiodurans”.
Construct, isoform or probe ends are uncertain for at least one entry. The comparison behind a weaker result is the experiment's own reference, which may not be listed here. At least one verdict rests on a figure or table, not on a statement of the authors. Protein sequences can lack the tags named with them.

Target: T1, DrHU T37E (Deinococcus radiodurans R1 (ATCC13939)) (UniProt Q9RZ89)
T1 sequence (looked up): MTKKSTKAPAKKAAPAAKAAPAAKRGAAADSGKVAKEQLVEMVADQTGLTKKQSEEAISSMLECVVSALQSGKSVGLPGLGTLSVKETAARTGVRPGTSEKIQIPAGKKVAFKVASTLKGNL
Test: hydroxyl radical protection
Conditions: weaker protection than WT, recombinant protein, residues 1-122, protein details: N-terminal His-MBP (pET28a-HMT), removed by TEV

AAGCTTGCCACCATGTACCCATACGACGTACCAGATTACGCTTTCATCAACGGCTACGCCCCTCAGAATCTGAGCATCAGAGGCGAGTACCAGATCAACTTTCACATCGTGAACTGGAATCTGTCCAACCCTGACCCCACCTCCAGCGAGTACATCACCCTGCTGAGAGATATCCAGGACAAGGTGACAACACTGTACAAGGGCTCCCAGCTGCACGATACCTTCAGATTTTGCCTGGTGACAAATCTGACAATGGATTCCGTGCTGGTGACCGTGAAGGCCCTGTTTAGCTCCAACCTGGACCCCTCCCTGGTGGAGCAGGTGTTCCTGGACAAGACACTGAACGCCAGCTTTCACTGGCTGGGCTCCACCTACCAGCTGGTGGACATCCACGTGACAGAGATGGAGAGCAGCGTGTACCAGCCTACCAGCTCCTCCAGCACCCAGCACTTTTACCTGAATTTCACAATCACCAACCTGCCTTACAGCCAGGACAAGGCCCAGCCCGGCACAACCAACTACCAGAGAAACAAGAGGAATATCGAGGACGCCCTGAATCAGCTGTTCAGGAACTCCAGCATCAAGTCCTACTTTTCCGATTGCCAGGTGTCCACCTTTAGAAGCGTGCCTAATAGACACCACACCGGCGTGGATAGCCTGTGTAATTTTTCCCCCCTGGCCAGAAGAGTGGACAGGGTGGCCATCTACGAGGAGTTTCTGAGAATGACCAGAAACGGCACCCAGCTGCAGAATTTTACCCTGGATAGAAGCTCCGTGCTGGTCGATGGCTACAGCCCTAACAGAAATGAGCCCCTGACCGGCAATTCCGATCTGCCTTTCTGGGCCGTGATCCTGATCGGCCTGGCCGGCCTGCTGGGCGTTATCACATGCCTGATCTGTGGCGTGCTGGTGACAACAAGAAGGAGGAAGAAGGAGGGCGAGTACAATGTGCAGCAGCAGTGCCCCGGCTACTACCAGTCCCACCTGGACCTGGAGGATCTGCAGGATTACAAGGACGACGATGACAAG (double strand) [1-kb duplex DNA]
binding result: binds more weakly
